{
  "sequences": {"note": "Sequences of proteins named here, by UniProt entry; tags and fusion partners are left off.", "UniProt P97855": "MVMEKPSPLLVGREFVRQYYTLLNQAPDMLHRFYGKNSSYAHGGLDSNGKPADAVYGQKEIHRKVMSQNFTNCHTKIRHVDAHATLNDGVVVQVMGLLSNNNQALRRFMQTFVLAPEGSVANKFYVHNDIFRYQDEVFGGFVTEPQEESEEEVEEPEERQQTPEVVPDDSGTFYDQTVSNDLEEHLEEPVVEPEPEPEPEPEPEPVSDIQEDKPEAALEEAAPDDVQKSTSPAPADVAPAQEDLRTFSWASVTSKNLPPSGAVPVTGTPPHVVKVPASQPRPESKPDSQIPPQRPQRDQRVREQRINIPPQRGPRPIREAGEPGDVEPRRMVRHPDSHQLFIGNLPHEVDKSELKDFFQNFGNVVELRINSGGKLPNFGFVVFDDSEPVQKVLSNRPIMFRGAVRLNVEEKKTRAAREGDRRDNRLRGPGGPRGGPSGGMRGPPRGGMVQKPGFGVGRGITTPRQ", "UniProt P00441": "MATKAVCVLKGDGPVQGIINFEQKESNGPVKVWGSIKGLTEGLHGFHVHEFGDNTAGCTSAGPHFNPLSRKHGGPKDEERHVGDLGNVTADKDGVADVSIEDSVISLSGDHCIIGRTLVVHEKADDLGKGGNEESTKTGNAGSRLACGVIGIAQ"},
  "source": "paper PMC5023729",
  "biological_target": "G3BP1, endogenous in mouse spinal cord (mouse (endogenous in spinal cord)) (UniProt P97855)",
  "assay": "co-IP; endogenous G3BP1 precipitated with rabbit anti-G3BP1 and Protein A resin from spinal cord extracts of 60-, 90- and 125-day-old WT or G93A SOD1 transgenic mice; 1x RIPA buffer, 4 °C, 2 h; western blot",
  "note": "No constants are given. Whether binding was seen depends on the method and setting. In cells and extracts the contact can be indirect. Some binding calls cover weakened binding; strength is not graded here.",
  "data": [
    {"substance": "WT human SOD1, transgene in mouse spinal cord (from UniProt P00441 1-154)", "values": [
      {"measurement": "binding", "result": "binds weakly"}
    ]}
  ]
}
